In the supplement of paper PMC10849652:
Some of the results follow. Residues, ends and D or L forms follow the SMILES beside them. *: point of attachment. Cbz = O=C(OCc1ccccc1)*

By UniProt entry, the sequences of proteins in these tests, tags left out. Where a name states a change or a piece, a line headed by the entry shows the natural chain unless it says otherwise.
UniProt O95415: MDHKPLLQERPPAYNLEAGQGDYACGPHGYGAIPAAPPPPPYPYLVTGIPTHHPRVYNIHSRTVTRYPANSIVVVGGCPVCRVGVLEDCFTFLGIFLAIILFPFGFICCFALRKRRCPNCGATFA
UniProt Q12983, whole entry, looked up: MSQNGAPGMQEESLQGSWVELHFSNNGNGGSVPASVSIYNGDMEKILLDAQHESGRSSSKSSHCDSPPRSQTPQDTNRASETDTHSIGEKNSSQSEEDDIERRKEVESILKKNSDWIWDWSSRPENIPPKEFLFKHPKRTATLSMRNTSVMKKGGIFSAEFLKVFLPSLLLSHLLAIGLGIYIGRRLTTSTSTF
UniProt Q9HCU9: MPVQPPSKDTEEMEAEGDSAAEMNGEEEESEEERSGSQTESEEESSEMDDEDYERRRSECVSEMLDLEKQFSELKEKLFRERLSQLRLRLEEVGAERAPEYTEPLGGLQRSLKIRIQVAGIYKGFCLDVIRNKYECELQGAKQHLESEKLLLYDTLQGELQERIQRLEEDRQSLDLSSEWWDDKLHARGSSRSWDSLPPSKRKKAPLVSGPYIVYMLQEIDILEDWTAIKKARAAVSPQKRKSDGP
UniProt Q96GD4, whole entry, looked up: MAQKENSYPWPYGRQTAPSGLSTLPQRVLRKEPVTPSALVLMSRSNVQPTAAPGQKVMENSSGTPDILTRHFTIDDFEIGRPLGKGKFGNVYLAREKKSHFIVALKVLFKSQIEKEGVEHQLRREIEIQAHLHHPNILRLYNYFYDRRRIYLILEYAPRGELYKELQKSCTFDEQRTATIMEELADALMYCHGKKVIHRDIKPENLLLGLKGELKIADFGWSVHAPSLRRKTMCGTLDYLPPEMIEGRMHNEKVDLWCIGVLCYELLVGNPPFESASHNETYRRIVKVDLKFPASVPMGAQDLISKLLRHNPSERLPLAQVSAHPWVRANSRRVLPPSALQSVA
UniProt Q96L58: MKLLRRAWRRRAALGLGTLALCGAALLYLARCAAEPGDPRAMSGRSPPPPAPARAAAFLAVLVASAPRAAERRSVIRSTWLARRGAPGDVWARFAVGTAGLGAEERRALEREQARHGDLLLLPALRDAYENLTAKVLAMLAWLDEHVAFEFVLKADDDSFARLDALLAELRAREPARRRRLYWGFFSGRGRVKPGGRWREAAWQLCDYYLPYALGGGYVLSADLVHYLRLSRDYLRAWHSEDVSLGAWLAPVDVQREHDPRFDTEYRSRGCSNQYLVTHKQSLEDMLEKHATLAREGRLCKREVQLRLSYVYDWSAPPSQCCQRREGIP
UniProt Q4VC05, whole entry, looked up: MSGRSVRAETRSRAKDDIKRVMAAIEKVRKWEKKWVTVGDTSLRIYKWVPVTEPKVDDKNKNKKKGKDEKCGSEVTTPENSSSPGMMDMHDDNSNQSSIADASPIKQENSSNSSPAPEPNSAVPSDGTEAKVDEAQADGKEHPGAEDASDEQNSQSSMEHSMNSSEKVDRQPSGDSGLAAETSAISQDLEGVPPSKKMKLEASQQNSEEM
UniProt Q9BQE9, whole entry, looked up: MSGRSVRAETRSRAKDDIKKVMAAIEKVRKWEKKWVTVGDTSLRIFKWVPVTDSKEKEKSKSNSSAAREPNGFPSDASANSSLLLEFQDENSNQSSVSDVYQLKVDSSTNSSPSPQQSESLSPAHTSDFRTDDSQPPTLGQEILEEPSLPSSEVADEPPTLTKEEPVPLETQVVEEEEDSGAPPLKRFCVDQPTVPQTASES
UniProt P13497: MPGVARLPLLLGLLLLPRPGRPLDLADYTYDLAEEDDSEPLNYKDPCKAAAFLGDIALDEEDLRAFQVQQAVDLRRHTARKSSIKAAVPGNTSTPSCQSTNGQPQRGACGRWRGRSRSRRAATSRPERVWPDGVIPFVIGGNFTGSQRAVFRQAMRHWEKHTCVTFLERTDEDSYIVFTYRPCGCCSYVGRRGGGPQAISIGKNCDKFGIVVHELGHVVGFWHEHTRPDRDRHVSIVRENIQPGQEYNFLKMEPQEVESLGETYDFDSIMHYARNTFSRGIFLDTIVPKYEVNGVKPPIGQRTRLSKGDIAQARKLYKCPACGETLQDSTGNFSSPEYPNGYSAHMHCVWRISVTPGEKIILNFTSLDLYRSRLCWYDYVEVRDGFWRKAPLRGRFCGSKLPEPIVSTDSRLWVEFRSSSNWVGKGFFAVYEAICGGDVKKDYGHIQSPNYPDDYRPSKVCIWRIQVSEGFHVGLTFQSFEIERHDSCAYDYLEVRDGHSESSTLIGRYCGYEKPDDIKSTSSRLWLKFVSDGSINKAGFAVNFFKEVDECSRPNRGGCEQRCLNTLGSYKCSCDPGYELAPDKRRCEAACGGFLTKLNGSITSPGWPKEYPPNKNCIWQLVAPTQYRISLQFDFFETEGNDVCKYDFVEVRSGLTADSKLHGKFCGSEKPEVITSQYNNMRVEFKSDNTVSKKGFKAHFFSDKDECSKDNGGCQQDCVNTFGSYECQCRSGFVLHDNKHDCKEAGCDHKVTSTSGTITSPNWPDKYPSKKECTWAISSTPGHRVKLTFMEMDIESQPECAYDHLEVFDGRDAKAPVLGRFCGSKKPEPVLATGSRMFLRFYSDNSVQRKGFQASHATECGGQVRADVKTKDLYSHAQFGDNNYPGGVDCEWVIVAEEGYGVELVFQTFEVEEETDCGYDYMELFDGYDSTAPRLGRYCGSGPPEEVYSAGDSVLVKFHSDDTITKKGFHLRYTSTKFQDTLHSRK
UniProt Q9H6S1, whole entry, looked up: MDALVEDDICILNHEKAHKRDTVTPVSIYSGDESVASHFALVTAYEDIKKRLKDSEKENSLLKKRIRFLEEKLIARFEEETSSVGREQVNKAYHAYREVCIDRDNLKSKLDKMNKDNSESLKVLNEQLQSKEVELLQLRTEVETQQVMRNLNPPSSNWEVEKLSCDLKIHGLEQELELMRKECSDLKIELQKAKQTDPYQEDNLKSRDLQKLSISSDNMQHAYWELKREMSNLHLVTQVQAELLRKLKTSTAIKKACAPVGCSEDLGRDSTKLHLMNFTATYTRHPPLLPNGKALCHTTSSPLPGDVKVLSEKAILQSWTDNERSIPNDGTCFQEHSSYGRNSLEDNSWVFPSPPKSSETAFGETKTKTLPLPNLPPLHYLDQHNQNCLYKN
UniProt Q96FH0: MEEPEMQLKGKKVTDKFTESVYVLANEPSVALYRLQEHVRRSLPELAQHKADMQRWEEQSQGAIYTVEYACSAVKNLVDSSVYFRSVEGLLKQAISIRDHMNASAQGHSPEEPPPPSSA
UniProt Q5T6C5: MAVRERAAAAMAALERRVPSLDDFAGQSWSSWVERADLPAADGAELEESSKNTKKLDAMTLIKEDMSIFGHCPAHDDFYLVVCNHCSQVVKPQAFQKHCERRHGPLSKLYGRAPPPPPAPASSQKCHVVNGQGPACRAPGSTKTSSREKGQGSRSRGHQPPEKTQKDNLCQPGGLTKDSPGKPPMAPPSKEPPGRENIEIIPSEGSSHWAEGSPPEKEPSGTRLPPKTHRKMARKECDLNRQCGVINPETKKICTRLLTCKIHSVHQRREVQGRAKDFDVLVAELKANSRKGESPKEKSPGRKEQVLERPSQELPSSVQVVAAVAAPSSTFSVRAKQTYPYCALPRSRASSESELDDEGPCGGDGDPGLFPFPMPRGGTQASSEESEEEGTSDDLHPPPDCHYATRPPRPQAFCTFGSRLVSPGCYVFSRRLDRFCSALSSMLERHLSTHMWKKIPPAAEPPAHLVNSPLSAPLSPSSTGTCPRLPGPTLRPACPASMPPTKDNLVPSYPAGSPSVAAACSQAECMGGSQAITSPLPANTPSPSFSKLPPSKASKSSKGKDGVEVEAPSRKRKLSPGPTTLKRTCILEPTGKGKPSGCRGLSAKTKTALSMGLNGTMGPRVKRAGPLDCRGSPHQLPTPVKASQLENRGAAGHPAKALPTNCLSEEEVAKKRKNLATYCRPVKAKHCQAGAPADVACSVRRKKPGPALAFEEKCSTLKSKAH
UniProt Q6PGQ7, whole entry, looked up: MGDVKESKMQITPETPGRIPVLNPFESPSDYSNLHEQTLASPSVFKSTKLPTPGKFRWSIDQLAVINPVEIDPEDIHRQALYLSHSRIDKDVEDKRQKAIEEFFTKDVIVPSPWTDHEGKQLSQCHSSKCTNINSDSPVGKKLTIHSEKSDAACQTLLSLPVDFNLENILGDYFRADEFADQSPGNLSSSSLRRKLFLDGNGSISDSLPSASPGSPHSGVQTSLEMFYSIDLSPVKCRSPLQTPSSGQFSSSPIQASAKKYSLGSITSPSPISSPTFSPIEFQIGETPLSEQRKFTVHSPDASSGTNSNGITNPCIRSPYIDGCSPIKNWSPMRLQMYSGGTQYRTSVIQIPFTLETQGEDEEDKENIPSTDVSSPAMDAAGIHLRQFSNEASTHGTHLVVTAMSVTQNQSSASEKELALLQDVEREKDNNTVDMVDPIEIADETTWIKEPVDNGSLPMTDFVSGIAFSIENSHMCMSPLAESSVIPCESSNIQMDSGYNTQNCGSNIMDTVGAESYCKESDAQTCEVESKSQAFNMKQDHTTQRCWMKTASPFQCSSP
UniProt Q9NYM9: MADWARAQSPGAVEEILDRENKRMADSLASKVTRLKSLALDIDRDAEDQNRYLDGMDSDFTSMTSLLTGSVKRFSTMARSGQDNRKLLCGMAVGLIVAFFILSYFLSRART
UniProt Q9NZS9: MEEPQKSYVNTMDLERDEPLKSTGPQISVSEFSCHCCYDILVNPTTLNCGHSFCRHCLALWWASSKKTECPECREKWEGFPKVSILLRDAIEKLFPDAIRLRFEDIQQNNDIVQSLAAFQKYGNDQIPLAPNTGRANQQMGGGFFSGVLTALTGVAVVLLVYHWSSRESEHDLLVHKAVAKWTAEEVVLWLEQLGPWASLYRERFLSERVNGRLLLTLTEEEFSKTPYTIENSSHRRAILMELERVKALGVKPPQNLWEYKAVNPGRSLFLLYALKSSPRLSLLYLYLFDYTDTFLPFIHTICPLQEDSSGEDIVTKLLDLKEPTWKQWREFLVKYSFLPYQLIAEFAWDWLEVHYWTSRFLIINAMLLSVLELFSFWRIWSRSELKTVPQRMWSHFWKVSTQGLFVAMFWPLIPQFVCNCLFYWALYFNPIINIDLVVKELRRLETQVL
UniProt O60238, whole entry, looked up: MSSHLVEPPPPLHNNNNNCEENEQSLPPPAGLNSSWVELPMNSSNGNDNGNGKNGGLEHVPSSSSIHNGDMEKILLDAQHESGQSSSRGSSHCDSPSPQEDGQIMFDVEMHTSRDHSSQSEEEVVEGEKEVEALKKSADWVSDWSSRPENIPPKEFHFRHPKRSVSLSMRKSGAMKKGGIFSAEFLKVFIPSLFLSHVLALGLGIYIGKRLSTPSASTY
UniProt O14977: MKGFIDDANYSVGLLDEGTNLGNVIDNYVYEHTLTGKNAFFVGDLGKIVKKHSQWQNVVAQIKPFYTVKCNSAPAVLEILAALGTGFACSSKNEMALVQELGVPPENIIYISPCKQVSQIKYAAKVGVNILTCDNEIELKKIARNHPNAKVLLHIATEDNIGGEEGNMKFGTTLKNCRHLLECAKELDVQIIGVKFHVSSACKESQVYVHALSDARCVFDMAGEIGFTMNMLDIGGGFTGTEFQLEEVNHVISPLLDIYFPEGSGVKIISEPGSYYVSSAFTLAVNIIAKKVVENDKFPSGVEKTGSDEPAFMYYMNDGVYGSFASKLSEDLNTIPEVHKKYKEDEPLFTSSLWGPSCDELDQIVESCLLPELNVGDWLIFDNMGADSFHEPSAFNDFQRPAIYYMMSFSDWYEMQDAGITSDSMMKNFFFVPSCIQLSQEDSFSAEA
UniProt Q9NQS1: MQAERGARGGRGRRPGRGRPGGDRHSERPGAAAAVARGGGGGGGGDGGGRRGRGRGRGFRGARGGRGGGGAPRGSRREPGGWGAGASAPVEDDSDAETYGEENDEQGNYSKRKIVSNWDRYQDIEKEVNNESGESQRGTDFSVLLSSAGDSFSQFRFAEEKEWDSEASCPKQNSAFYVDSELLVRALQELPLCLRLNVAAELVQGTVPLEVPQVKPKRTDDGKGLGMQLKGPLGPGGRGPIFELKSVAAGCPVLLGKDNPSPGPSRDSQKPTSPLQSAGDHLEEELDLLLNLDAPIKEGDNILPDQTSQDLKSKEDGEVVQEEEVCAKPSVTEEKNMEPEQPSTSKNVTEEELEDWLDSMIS
UniProt Q9NWD9: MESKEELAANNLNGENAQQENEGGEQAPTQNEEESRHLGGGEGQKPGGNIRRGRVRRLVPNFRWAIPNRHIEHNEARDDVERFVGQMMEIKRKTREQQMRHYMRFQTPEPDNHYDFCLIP
UniProt Q96G97: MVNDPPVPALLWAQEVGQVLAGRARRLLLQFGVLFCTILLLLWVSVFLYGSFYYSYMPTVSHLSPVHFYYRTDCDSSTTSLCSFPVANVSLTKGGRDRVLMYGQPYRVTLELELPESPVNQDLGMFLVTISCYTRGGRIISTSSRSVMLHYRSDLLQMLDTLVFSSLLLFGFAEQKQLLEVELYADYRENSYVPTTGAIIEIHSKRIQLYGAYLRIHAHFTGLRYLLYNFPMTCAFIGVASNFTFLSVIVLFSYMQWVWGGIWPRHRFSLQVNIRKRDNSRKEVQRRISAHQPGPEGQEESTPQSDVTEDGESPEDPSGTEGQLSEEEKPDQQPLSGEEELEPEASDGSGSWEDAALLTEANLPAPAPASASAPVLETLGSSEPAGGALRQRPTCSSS

What was measured:
Test in all cases: log2 fold change, soluble protein after heating vs DMSO (PISA); higher = thermal stabilisation; K562 cells, 10 uM, 30 min; active = over 0.2 and 3.5 SD of the protein, either way, in both replicates (recomputed)
[1] = compound: C=CC(=O)N1CCC[C@@H](n2nc(-c3ccc(Oc4ccccc4)cc3)c3c(N)ncnc32)C1 [ibrutinib]
Summary of the method: (§1)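 K562 cells at 2×10^6 cells/mL were treated for 30 min with 10 μM compound, and aliquots were heated for 3 min over 48°C-58°C before pooling. Extraction used PBS with 0.5% NP-40 at 4°C, and soluble protein was the supernatant after 21,000xg for 90 min, measured by TMTpro 16plex LC-MS/MS with channel sums equalised. Thermal stability values, relative to control samples and from duplicates, are log2 fold changes.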

[2] = compound: CC(=O)c1cnc2ccc(-c3cc(Cl)c(O)c(Cl)c3)nc2c1N[C@H]1CC[C@H](CN(C)C)CC1
Summary of the method: as §1

[3] = compound: CC(C)(C)Cn1c(N)nc2ccc(-c3[nH]c(C(C)(C)C)nc3-c3ccc(F)cc3)nc21 [ralimetinib]
Summary of the method: as §1

[4] = compound: CC(C)(O)CC(=O)NCCn1ccc2ncnc(Nc3ccc(Oc4cccc(C(F)(F)F)c4)c(Cl)c3)c21
Summary of the method: as §1

[5] = compound: CC(C)C[C@@H](C=O)NC(=O)[C@H](CC(C)C)NC(=O)[C@H](CC(C)C)NC(=O)OCc1ccccc1
Summary of the method: as §1

[6] = compound: CC1=C(C(CC(=O)N1)C2=CC=C(C=C2)C(F)(F)F)C(=O)NC3=C(C=C4C(=C3)C=NN4)F
Summary of the method: as §1

[7] = compound: CC1=C(C2=C(C=C1)C(=O)C3=CC=CC=C3N2CCCN)C
Summary of the method: as §1

[8] = compound: CC(C)C1=C2N=C(C=C(N2N=C1)NCC3=CC=CC=C3)NCCCCCCN
Summary of the method: as §1

[9] = compound: C1COCCN1CCN2C3=CC=CC=C3N=C2NC(=O)C4=CC(=CC=C4)[N+](=O)[O-] [IRAK-1-4 Inhibitor I]
Summary of the method: as §1

[10] = compound: CC(C)N(C[C@H]1O[C@@H](n2cnc3c(N)ncnc32)[C@H](O)[C@@H]1O)[C@H]1C[C@@H](CCc2nc3cc(C(C)(C)C)ccc3[nH]2)C1 [pinometostat]
Summary of the method: as §1

Measured: log2 fold change

BRI3 (UniProt O95415)
inactive: [1] -0.22

BNIP3 (UniProt Q12983)
inactive: [1] 0.016 | [2] -0.156 | [3] 0.035 | [4] 0 | [5] 0.184 | [6] 0.029 | [7] -0.046

BRD4 (UniProt O60885)
inactive: [1] -0.018 | [2] -0.254 | [3] -0.174 | [4] -0.011 | [8] 0.094 | [5] -0.035 | [7] 0.101

BPTF (UniProt Q12830)
inactive: [9] 0.01 | [4] 0.226 | [8] -0.079 | [10] -0.001 | [6] 0.054

BNIP2 (UniProt H7C096)
inactive: [1] 0.197 | [8] -0.266

BRMS1 (UniProt Q9HCU9)
inactive: [2] 0.055 | [4] -0.002 | [7] -0.014

BAZ1B (UniProt Q9UIG0)
inactive: [9] -0.126 | [10] 0.041 | [6] 0.074

AURKB isoform 5 (UniProt Q96GD4)
inactive: [2] 1.18 | [6] 0.015 | [7] -0.13

B3GALT6 (UniProt Q96L58)
inactive: [9] 0.016 | [3] 0.064 | [8] 0.221 | [5] 0.055 | [10] 0.082

BCL7A isoform 2 (UniProt Q4VC05)
inactive: [2] -0.011 | [4] 0.167 | [8] 0.045 | [7] -0.014

BCL7B (UniProt Q9BQE9)
inactive: [9] -0.349 | [10] 0.116

BMP1 (UniProt P13497)
inactive: [1] 0.143 | [8] 0.233

BCS1L, A0A2R8Y7T3
inactive: [1] 0.035

AZI2 (UniProt Q9H6S1)
inactive: [1] 0.046 | [3] -0.241 | [8] -0.126 | [5] -0.09 | [7] 0.022

BOD1 (UniProt Q96IK1)
inactive: [3] -0.025 | [8] 0.032 | [5] 0

BORCS8 (UniProt Q96FH0)
inactive: [3] 0.045 | [5] -0.119 | [7] 0.311

ATXN7L2 (UniProt Q5T6C5)
inactive: [4] 0.041

BORA (UniProt Q6PGQ7)
inactive: [1] -0.242 | [4] -0.037

ATXN2 (UniProt F8W0B5)
inactive: [2] -0.126 | [3] -0.155 | [8] 0.002 | [5] 0.06 | [6] -0.048

BET1L (UniProt Q9NYM9)
inactive: [2] -0.102 | [3] -0.05 | [4] 0.05 | [8] -0.008 | [5] -0.096 | [6] 0.057 | [7] 0.11

BFAR (UniProt Q9NZS9)
inactive: [4] -0.07

Taken from the entries so far (seven entries):
AZI2 (UniProt Q9H6S1)
inactive: [1] 0.046 | [3] -0.241 | [8] -0.126 | [5] -0.09 | [7] 0.022

BOD1 (UniProt Q96IK1)
inactive: [3] -0.025 | [8] 0.032 | [5] 0

BORCS8 (UniProt Q96FH0)
inactive: [3] 0.045 | [5] -0.119 | [7] 0.311

ATXN7L2 (UniProt Q5T6C5)
inactive: [4] 0.041

BORA (UniProt Q6PGQ7)
inactive: [1] -0.242 | [4] -0.037

ATXN2 (UniProt F8W0B5)
inactive: [2] -0.126 | [3] -0.155 | [8] 0.002 | [5] 0.06 | [6] -0.048

BET1L (UniProt Q9NYM9)
inactive: [2] -0.102 | [3] -0.05 | [4] 0.05 | [8] -0.008 | [5] -0.096 | [6] 0.057 | [7] 0.11

Further entries

BNIP3L (UniProt O60238)
inactive: [9] -0.056 | [3] -0.148 | [8] 0.081 | [5] 0.35 | [10] 0.066 | [6] 0.072 | [7] -0.279

B2M (UniProt P61769)
inactive: [1] -0.002 | [2] 0.015 | [3] -0.025 | [4] -0.016 | [8] 0.026 | [5] -0.048 | [6] -0.01 | [7] 0.146

B4GALT4 (UniProt O60513)
inactive: [1] 0.094 | [3] 0.248 | [5] -0.174 | [6] 0.042

AZIN1 (UniProt O14977)
inactive: [3] 0.033 | [5] 0.331

BCL2L12 (UniProt Q9HB09)
inactive: [1] 0.003 | [2] -0.28 | [3] -0.054 | [4] -0.037 | [8] -0.22 | [5] 0.176 | [6] 0.045

BCL2L11 (UniProt O43521)
inactive: [2] -0.009 | [3] -0.063 | [4] 0.172 | [8] -0.045 | [5] -0.072 | [6] -0.049 | [7] -0.066

BCL7C isoform 2 (UniProt Q8WUZ0)
inactive: [1] 0.008 | [4] 0.076 | [8] 0.052 | [6] 0.05

AVEN (UniProt Q9NQS1)
inactive: [1] 0.065 | [4] 0 | [8] -0.008

BEX4 (UniProt Q9NWD9)
inactive: [1] 0.094 | [8] 0.073

BAP18 isoform 3 (UniProt Q8IXM2)
inactive: [8] 0.074 | [7] -0.183

BSCL2 isoform 4 (UniProt Q96G97)
inactive: [1] 0.069 | [2] -0.109 | [4] 0.003 | [8] -0.219 | [7] 0.023

ATRX (UniProt P46100)
inactive: [2] -0.099

AURKAIP1 (UniProt Q9NWT8)
inactive: [2] 0.016 | [3] 0.215 | [4] 0.126 | [8] -0.029 | [5] 0.178 | [7] -0.006

BPIFB1 (UniProt Q8TDL5)
inactive: [6] -0.879

BAHD1 (UniProt Q8TBE0)
inactive: [8] -0.013 | [6] 0.067

BAIAP2 isoform 4 (UniProt Q9UQB8)
inactive: [7] 0.053

AUNIP isoform 2 (UniProt Q9H7T9)
inactive: [2] -0.219 | [8] -0.134 | [7] -0.141

BCAS1 (UniProt O75363)
inactive: [1] 0.127 | [2] -0.046 | [3] 0.026 | [4] -0.139 | [8] 0.067 | [5] 0.103 | [6] 0.197 | [7] 0
